Experiment [1] concerns the target IRE1β-FLAG (doxycycline-inducible, in LS174T cells) (human) (UniProt Q76MJ5). Briefly: affinity purification with mass spectrometry; anti-FLAG (BioM2 on streptavidin Dynabeads) precipitation of IRE1α-FLAG or IRE1β-FLAG from LS174T lysates after 24 h doxycycline; 50 mM HEPES-KOH pH 8.0, 100 mM KCl, 2 mM EDTA, 0.1% NP-40, 1 mM DTT; 2 h at 4 °C; label-free quantification against empty vector control.

By UniProt entry, the sequences of proteins in these tests, tags left out. Residues count along the entry.
UniProt Q76MJ5, residues 35-926: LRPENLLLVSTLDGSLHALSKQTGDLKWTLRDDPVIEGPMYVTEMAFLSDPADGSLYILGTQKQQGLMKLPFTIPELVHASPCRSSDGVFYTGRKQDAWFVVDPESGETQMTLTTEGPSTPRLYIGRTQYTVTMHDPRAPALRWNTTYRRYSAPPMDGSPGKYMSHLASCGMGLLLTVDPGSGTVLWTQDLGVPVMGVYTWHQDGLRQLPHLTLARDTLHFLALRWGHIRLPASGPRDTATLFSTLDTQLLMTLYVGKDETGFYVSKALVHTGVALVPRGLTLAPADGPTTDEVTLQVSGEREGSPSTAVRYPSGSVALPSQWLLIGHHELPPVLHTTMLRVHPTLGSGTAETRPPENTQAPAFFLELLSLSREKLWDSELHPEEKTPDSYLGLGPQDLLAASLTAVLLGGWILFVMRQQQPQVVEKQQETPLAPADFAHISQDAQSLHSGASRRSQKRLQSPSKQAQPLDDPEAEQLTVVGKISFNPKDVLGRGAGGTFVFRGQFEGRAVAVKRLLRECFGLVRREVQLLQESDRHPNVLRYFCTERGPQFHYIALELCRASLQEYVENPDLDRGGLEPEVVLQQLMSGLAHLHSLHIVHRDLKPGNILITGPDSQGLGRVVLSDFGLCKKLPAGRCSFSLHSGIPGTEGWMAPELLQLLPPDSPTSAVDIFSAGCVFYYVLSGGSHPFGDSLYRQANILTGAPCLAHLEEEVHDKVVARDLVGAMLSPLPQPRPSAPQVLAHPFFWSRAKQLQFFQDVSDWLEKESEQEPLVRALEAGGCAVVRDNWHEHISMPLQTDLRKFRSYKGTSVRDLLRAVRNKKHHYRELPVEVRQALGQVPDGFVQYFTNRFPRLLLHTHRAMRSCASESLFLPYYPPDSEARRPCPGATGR
UniProt O75460, residues 19-977: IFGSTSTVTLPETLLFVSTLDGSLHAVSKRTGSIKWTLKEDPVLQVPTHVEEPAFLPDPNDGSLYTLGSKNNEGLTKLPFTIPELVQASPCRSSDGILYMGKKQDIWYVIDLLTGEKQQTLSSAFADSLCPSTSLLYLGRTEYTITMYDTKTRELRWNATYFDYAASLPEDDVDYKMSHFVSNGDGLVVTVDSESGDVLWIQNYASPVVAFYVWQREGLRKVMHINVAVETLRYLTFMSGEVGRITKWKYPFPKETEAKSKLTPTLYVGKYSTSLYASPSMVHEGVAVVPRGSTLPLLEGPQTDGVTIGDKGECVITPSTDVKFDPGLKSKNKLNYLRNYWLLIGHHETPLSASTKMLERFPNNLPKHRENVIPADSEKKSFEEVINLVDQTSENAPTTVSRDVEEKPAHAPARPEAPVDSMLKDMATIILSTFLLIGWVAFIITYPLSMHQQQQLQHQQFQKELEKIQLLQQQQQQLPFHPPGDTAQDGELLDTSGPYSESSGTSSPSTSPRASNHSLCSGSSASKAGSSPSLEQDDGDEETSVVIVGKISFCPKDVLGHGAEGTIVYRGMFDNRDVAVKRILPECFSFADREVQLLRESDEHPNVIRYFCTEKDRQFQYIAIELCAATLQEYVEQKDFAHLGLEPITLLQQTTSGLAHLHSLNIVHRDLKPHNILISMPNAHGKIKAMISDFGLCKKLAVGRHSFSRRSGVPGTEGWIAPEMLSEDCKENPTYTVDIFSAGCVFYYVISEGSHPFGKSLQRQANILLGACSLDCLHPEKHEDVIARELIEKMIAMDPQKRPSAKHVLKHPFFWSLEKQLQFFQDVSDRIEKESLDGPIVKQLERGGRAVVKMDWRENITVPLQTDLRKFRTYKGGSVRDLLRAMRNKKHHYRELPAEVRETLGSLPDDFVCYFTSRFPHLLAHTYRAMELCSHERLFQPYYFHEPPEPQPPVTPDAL
UniProt O95994, residues 21-175: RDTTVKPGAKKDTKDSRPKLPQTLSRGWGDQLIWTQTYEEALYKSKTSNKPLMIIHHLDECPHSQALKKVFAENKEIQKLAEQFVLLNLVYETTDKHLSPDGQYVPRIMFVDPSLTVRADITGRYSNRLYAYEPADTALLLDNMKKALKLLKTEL

The target in experiment [2] is IRE1α-FLAG (doxycycline-inducible, in LS174T cells) (human) (UniProt O75460). Described as above.

These are yes or no findings as the source states them, for the method shown. In cells and extracts the contact can be indirect. These calls come from enrichment with a bait or labelling near it, and not all partners need be listed.

For “AGR2 (endogenous in LS174T cells) (from UniProt O95994 21-175)”, the binding result in experiment [1] was “binds”.

B1: CDC37 (protein, UniProt Q16543 1-378)
chain: MVDYSVWDHIEVSDDEDETHPNIDTASLFRWRHQARVERMEQFQKEKEELDRGCRECKRKVAECQRKLKELEVAEGGKAELERLQAEAQQLRKEERSWEQKLEEMRKKEKSMPWNVDTLSKDGFSKSMVNTKPEKTEEDSEEVREQKHKTFVEKYEKQIKHFGMLRRWDDSQKYLSDNVHLVCEETANYLVIWCIDLEVEEKCALMEQVAHQTIVMQFILELAKSLKVDPRACFRQFFTKIKTADRQYMEGFNDELEAFKERVRGRAKLRIEKAMKEYEEEERKKRLGPGGLDPVEVYESLPEELQKCFDVKDVQMLQDAISKMDPTDAKYHMQRCIDSGLWVPNSKASEAKEGEEAGPGDPLLEAVPKTGDEKDVSV
Turning to B1, the binding result in experiment [2] and in experiment [1] was “binds” each time.

The values above are taken from paper PMC10907643.
